# Measured values published in PubChem BioAssay AID328 (DTP/NCI, 2004).
# The list does not hold the whole screen: it is rich in T/C values a quarter to a half above the control, in often repeated tests (any T/C) and in doses without a T/C. Further doses and runs are listed elsewhere. T/C: endpoint of the treated group in % of that of the vehicle group. Some doses have a count of surviving animals in place of a T/C: the source files T/C as zero there, which appears to mark a toxic dose or a test without result, not a measured value. Some doses without a T/C left all or most animals alive at the check, yet need not have been tolerated: survival well below the control is almost never listed, so the zero probably covers shortened survival too. Survivors were counted at the toxicity check, usually on the fifth day, unless a day is given; later deaths do not show. Schedule codes are those of the source, read here as Q, the interval in days (D) or hours (H), X, the number of doses. Where survival is the endpoint, this PubChem deposit counts one and a half times the control or more as active, and values a quarter to a half above the control carry no call in these data; other NCI protocols may use other cut-offs. Some T/C values carry the count of animals alive at the toxicity check (mostly the fifth day); where none is given, no animal had died by that day. Some entries were tested several times; their values stand side by side, smallest first.
# Tested on: BDF1 mice, P388 leukemia ip, median survival T/C
# Assay: NCI In Vivo Anticancer Drug Screen. Data for tumor model P388 Leukemia (intraperitoneal) in B6D2F1 (BDF1) mice
# Conditions: T/C endpoint: median survival time, higher T/C = longer survival
# Procedure, shortened: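 Each value expresses how treatment altered survival: treated-mouse outcome over vehicle-mouse outcome, both groups bearing the transplanted tumour.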
# [1] = dose: 200.0 mg/kg/injection, schedule: Q01DX009 (ip), vehicle: saline with Tween-80
# [2] = dose: 100.0 mg/kg/injection, schedule: Q01DX009 (ip), vehicle: Klucel (hydroxypropylcellulose) (HPC)
# [3] = dose: 100.0 mg/kg/injection, schedule: Q01DX009 (ip), vehicle: saline with Tween-80
# [4] = dose: 400.0 mg/kg/injection, schedule: Q01DX009 (ip), vehicle: saline with Tween-80
# [5] = dose: 12.0 mg/kg/injection, schedule: Q01DX009 (ip), vehicle: saline
# [6] = dose: 400.0 mg/kg/injection, schedule: Q04DX003 (ip), vehicle: saline
# [7] = dose: 50.0 mg/kg/injection, schedule: Q01DX009 (ip), vehicle: saline with Tween-80
# [8] = dose: 200.0 mg/kg/injection, schedule: Q01DX009 (ip), vehicle: Klucel (hydroxypropylcellulose) (HPC)
# [9] = dose: 1.5 mg/kg/injection, schedule: Q01DX009 (ip), vehicle: saline with Tween-80
compound,measurement,setting,value
O=C(NNc1ccccc1)C12CC3CC(CC(C3)C1)C2,survivor count,[1],6 of 6
Cc1ccc(C2(C(=O)O)CCCC2)cc1,survivor count,[2],6 of 6
same,survivor count,[3],5 of 6
same,survivor count,[4],6 of 6
CC(C)(C)OC(=O)NC(CC(Cc1ccccc1)C(=O)O)C(=O)NC(CC(Cc1ccccc1)C(=O)O)C(=O)NC(CC(Cc1ccccc1)C(=O)O)C(=O)NCC(=O)Oc1ccc([N+](=O)[O-])cc1 (stereo unspecified),survivor count,"dose: 100.0 mg/kg/injection, schedule: Q01DX005 (ip), vehicle: saline with Tween-80",5 of 5
COc1cccc(/C=C/C(=O)c2ccc(Cl)cc2)c1OC,survivor count,[1],6 of 6
CN1CCN(c2ccc([N+](=O)[O-])c3nonc23)CC1,survivor count,"dose: 80.0 mg/kg/injection, schedule: Q04DX003 (ip), vehicle: saline with Tween-80",5 of 7
COC1OC(C)C(O)C(O)[CH]1[Hg][O]C(C)=O (stereo unspecified),survivor count,"dose: 3.0 mg/kg/injection, schedule: Q01DX009 (ip), vehicle: saline",5 of 6
same,survivor count,"dose: 6.0 mg/kg/injection, schedule: Q01DX009 (ip), vehicle: saline",5 of 6
same,survivor count,[5],3 of 6
NCCNc1ccc(NCCN)c2c1C(=O)c1ccccc1C2=O,T/C,"dose: 12.5 mg/kg/injection, schedule: Q01DX009 (ip), vehicle: other",148 % of control
same,survivor count,"dose: 25.0 mg/kg/injection, schedule: Q01DX009 (ip), vehicle: other",6 of 6
same,survivor count,"dose: 50.0 mg/kg/injection, schedule: Q01DX009 (ip), vehicle: other",0 of 6
same,survivor count,"dose: 100.0 mg/kg/injection, schedule: Q01DX009 (ip), vehicle: other",0 of 6
N=c1c(C(N)=O)cnc2n1CCCCC2,survivor count,"dose: 200.0 mg/kg/injection, schedule: Q04DX003 (ip), vehicle: saline",5 of 6
same,survivor count,[6],0 of 6
COC(=O)c1ccc(-c2cc(Cl)c3cc(S(=O)(=O)F)ccc3n2)cc1,survivor count,[4],6 of 6
c1ccc(C2CN3CCSC3=N2)cc1 (stereo unspecified),survivor count,[7],0 of 6
same,survivor count,[3],0 of 6
same,survivor count,[1],0 of 6
same,survivor count,[4],0 of 6
O=C(NC(=S)N1CC1)c1ccccc1,survivor count,[4],6 of 6
O=NN(CCCl)C(=O)NC1CCC(NC(=O)N(CCCl)N=O)CC1 (stereo unspecified),T/C,"dose: 5.5 mg/kg/injection, schedule: Q04DX003 (ip), vehicle: saline with Tween-80",141 % of control
same,T/C,"dose: 8.0 mg/kg/injection, schedule: Q01DX009 (ip), vehicle: saline with Tween-80",137 % of control
same,survivor count,[4],6 of 6
N#CCCN(C(=S)Nc1cccc(C(F)(F)F)c1)C1CCCCC1,T/C,[1],129 % of control
same,T/C,[4],126 [5 of 6 alive] and 137 % of control
Cc1c(Br)c(=O)n(-c2ccccc2)n1C,survivor count,[2],3 of 3
same,survivor count,[8],3 of 3
COC(=O)C1=C(C)NC(C)=C(C(=O)OC)C1C(C)Cl (stereo unspecified),survivor count,[1],0 of 6
NC(=S)N/N=C/C=C/c1ccccc1,survivor count,"dose: 200.0 mg/kg/injection, schedule: Q04DX002 (ip), vehicle: Klucel (hydroxypropylcellulose) (HPC)",0 of 6
same,survivor count,"dose: 400.0 mg/kg/injection, schedule: Q04DX002 (ip), vehicle: Klucel (hydroxypropylcellulose) (HPC)",0 of 6
C=C1N(C)c2ccccc2C1(C)C,T/C,"dose: 11.8 mg/kg/injection, schedule: Q01DX009 (ip), vehicle: saline with Tween-80",125 % of control
O=C1OC(Cc2ccccc2)(c2ccccc2)c2ccccc21 (stereo unspecified),survivor count,[1],5 of 6
COc1cc(/C=C(/C)[N+](=O)[O-])ccc1O,T/C,"dose: 25.0 mg/kg/injection, schedule: Q01DX009 (ip), vehicle: carboxymethylcellulose (CMC)",125 % of control [5 of 6 alive]
same,T/C,"dose: 37.5 mg/kg/injection, schedule: Q01DX009 (ip), vehicle: Klucel (hydroxypropylcellulose) (HPC)",148 % of control
same,T/C,"dose: 50.0 mg/kg/injection, schedule: Q01DX009 (ip), vehicle: Klucel (hydroxypropylcellulose) (HPC)",128 % of control
same,T/C,"dose: 50.0 mg/kg/injection, schedule: Q01DX009 (ip), vehicle: carboxymethylcellulose (CMC)",127 % of control
same,T/C,"dose: 50.0 mg/kg/injection, schedule: Q01DX009 (ip), vehicle: saline",137 % of control [5 of 6 alive]
same,T/C,"dose: 75.0 mg/kg/injection, schedule: Q01DX009 (ip), vehicle: Klucel (hydroxypropylcellulose) (HPC)",131 % of control
same,T/C,[2],126 and 138 % of control [5 of 6 alive]
same,T/C,"dose: 100.0 mg/kg/injection, schedule: Q01DX009 (ip), vehicle: carboxymethylcellulose (CMC)",134 % of control [5 of 6 alive]
same,T/C,"dose: 100.0 mg/kg/injection, schedule: Q01DX009 (ip), vehicle: saline",125 % of control
same,survivor count,"dose: 150.0 mg/kg/injection, schedule: Q01DX009 (ip), vehicle: Klucel (hydroxypropylcellulose) (HPC)",1 of 6
same,T/C,[8],128 % of control
same,survivor count,"dose: 200.0 mg/kg/injection, schedule: Q01DX009 (ip), vehicle: saline",0 of 6
same,survivor count,[6],0 of 6
CCN1CC2(COC)C(O)CC(OC)C34C5CC6(O)C(OC)C=C(C5C6OC(=O)c5ccc(OC)c(OC)c5)C(C(OC)C23)C14 (stereo unspecified),survivor count,[9],6 of 6
COC1CCC2=C(C1)C(=O)CC1c3ccccc3CN21 (stereo unspecified),survivor count,"dose: 100.0 mg/kg/injection, schedule: Q04DX003 (ip), vehicle: saline with Tween-80",5 of 6
Cc1ccc(Sc2cccc3c(C)c4cccc5c4c(c23)C[S+]5c2ccc(C)cc2)cc1 (stereo unspecified),T/C,[9],125 % of control
same,T/C,"dose: 3.0 mg/kg/injection, schedule: Q01DX009 (ip), vehicle: saline with Tween-80",129 % of control
same,survivor count,"dose: 6.0 mg/kg/injection, schedule: Q01DX009 (ip), vehicle: saline with Tween-80",6 of 6
CC(C(=O)O)N(CC(=O)O)CC(=O)O.[Co+2].[NH-]CC(=O)O (stereo unspecified),survivor count,"dose: 100.0 mg/kg/injection, schedule: Q01DX009 (ip), vehicle: water",3 of 6
same,survivor count,"dose: 200.0 mg/kg/injection, schedule: Q01DX009 (ip), vehicle: water",0 of 6
same,survivor count,"dose: 200.0 mg/kg/injection, schedule: Q04DX003 (ip), vehicle: water",5 of 6
same,survivor count,"dose: 400.0 mg/kg/injection, schedule: Q04DX003 (ip), vehicle: water",3 of 6
[Cl][Hg][CH]1CCCC2OC(C(Cl)(Cl)Cl)OC21 (stereo unspecified),survivor count,"dose: 1.56 mg/kg/injection, schedule: Q01DX001 (ip), vehicle: saline with Tween-80",4 of 6
same,survivor count,"dose: 3.13 mg/kg/injection, schedule: Q01DX001 (ip), vehicle: saline with Tween-80",2 of 6
CCCCCCCCCC(=O)OCC1OC(=O)C(C)N(C)C(=O)CN(C)C(=O)C2C(=O)CC(C)N2C(=O)C(C(C)C)NC(=O)C1NC(=O)c1c2nc3c(C(=O)NC4C(=O)NC(C(C)C)C(=O)N5C(C)CC(OC(=O)CCCCCCCCC)C5C(=O)N(C)CC(=O)N(C)C(C(C)C)C(=O)OC4C)ccc(C)c3oc-2c(C)c(=O)c1N (stereo unspecified),survivor count,"dose: 1.2 mg/kg/injection, schedule: Q04DX003 (ip), vehicle: saline with Tween-80",8 of 8
Nc1ncnc2c(C3OC(CO)C(O)C3O)[nH]nc12 (stereo unspecified),T/C,"dose: 3.13 mg/kg/injection, schedule: Q01DX009 (ip), vehicle: saline",127 % of control
same,T/C,"dose: 3.5 mg/kg/injection, schedule: Q01DX009 (ip), vehicle: saline",126 % of control
same,T/C,"dose: 5.2 mg/kg/injection, schedule: Q01DX009 (ip), vehicle: saline",131 % of control
same,T/C,"dose: 6.25 mg/kg/injection, schedule: Q01DX009 (ip), vehicle: saline",136 % of control
same,T/C,[5],140 % of control
same,T/C,"dose: 18.0 mg/kg/injection, schedule: Q01DX009 (ip), vehicle: saline",145 % of control
same,survivor count,"dose: 25.0 mg/kg/injection, schedule: Q01DX009 (ip), vehicle: saline with Tween-80",6 of 6
same,survivor count,[7],4 of 6
same,T/C,"dose: 50.0 mg/kg/injection, schedule: Q04DX003 (ip), vehicle: saline sonified",127 % of control
same,survivor count,[3],0 of 6
same,survivor count,"dose: 200.0 mg/kg/injection, schedule: Q04DX003 (ip), vehicle: saline sonified",5 of 6
Cc1ccc(NC(=O)OCCSCCOC(=O)Nc2ccc(C)cc2)cc1,survivor count,"dose: 100.0 mg/kg/injection, schedule: Q04DX003 (ip), vehicle: other",6 of 6
